From paper PMC8117158
No constants are given. Whether binding was seen depends on the method and setting. Binding seen in cells or lysates may run through a third protein. Some entries that bind do so weakly or less than the wild type.

By UniProt entry, the sequences of proteins in these tests, tags left out.
UniProt P0A6B7: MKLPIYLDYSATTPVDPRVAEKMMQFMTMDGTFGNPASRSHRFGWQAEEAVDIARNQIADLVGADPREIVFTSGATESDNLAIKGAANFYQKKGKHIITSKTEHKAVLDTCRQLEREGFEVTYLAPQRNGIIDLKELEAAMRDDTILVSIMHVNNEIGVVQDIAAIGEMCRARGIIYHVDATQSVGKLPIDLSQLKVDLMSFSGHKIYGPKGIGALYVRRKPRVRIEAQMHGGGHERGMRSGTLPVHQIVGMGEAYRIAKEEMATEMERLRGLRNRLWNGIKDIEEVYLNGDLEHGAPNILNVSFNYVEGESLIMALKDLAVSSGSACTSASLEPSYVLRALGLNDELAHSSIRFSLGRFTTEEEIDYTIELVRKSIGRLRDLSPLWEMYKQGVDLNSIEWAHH
UniProt P0ACD4: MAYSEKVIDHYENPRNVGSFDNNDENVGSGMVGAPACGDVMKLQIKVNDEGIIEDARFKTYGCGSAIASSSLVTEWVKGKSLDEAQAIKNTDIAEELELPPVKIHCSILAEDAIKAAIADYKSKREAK

Target: IscS-H6 (E. coli K-12) (UniProt P0A6B7)
Assay: pull-down; cells co-expressing the proteins treated with 1% formaldehyde (in vivo cross-linking); extracts loaded on Ni-chelating Sepharose in 20 mM Tris-HCl pH 7.9, 0.5 M NaCl, washed with 60 mM imidazole, eluted with 1 M imidazole; SDS-PAGE

## IscU-S (from UniProt P0ACD4 1-128)
  binding: binds
